Experimental data taken from publication PMC12715260.
Results are given in words; binding and its absence hold for the method and conditions named. Binding seen in cells or lysates may run through a third protein. These calls come from enrichment with a bait or labelling near it, and not all partners need be listed.

By UniProt entry, the sequences of proteins in these tests, tags left out.
UniProt P63158: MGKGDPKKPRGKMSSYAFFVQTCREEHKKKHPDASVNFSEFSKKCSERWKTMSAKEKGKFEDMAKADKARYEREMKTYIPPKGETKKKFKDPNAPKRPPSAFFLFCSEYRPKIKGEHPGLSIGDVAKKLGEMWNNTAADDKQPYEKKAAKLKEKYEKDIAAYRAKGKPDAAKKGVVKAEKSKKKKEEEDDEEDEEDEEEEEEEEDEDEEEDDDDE

Target: T1, solute carrier family 7 member 11 (SLC7A11), endogenous in MDSCs (mouse (endogenous in bone marrow-derived MDSCs of C57BL/6J mice)) (UniProt Q9WTR6)
T1 sequence: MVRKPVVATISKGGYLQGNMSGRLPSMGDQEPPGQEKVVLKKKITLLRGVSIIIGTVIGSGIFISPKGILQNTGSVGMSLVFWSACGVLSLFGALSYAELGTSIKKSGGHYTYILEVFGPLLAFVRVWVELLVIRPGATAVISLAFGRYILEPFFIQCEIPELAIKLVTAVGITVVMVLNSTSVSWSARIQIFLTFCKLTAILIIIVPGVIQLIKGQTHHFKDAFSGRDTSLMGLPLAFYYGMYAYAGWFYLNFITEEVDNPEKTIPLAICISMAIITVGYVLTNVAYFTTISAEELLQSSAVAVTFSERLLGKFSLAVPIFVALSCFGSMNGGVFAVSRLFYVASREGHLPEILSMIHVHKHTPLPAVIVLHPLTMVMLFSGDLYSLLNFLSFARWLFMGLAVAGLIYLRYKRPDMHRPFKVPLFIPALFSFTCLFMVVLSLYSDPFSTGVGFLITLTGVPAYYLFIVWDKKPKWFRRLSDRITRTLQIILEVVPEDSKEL
Test: affinity purification with mass spectrometry; IP with anti-SLC7A11 (Abcam ab175186; Capturem IP & Co-IP Kit) from MDSCs treated with heat-inactivated A. fumigatus (MOI = 2) for 24 h, unstimulated MDSCs as control; SDS-PAGE gel slices, LC-MS/MS

binding: binds
Substance: High Mobility Group Box 1 (HMGB1), endogenous in MDSCs (from UniProt P63158 1-215)
